Patent publication US20220363754A1
No constants are given. Whether binding was seen depends on the method and setting. Some results given as binding are weak or reduced against the parent protein; the word gives no strength. For some assays here: Where a sequence is shown, tags or fusion partners need not be part of it.

T1: recombinant protein hTIGIT-ECD-mFC (human; mouse) (UniProt Q495A1)
T1 sequence (looked up): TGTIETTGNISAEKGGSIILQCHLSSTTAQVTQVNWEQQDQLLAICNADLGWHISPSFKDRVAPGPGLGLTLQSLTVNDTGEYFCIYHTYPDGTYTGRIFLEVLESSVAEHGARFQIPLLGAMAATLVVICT

T2: hTIGIT-Fc (human) (UniProt Q495A1)
T2 sequence (looked up): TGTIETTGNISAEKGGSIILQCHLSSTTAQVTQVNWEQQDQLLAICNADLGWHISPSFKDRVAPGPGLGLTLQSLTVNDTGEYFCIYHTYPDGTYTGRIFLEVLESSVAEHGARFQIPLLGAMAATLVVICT


Tests used:
[1] = target: T1, recombinant protein hTIGIT-ECD-mFC (human; mouse); experiment: ELISA, human TIGIT-ECD-mFc coated at 0.5 ug/mL
[2] = target: Cyno TIGIT-Fc (cynomolgus monkey); experiment: SPR (Biacore T200)
[3] = target: T2, hTIGIT-Fc (human); experiment: SPR (Biacore T200)

binding [1]	binding [2]	binding [3]	Binder
binds	–	–	humanized antibody hu69 (antibody, V domains shown) VH: QVQLVQSGAEVKKPGASVKVSCKASGYTFTNYWILWIRQAPGQGLEWMGDIYPGGHYTNYNEKFQGRVTLTADTSSSTAYMELSRLRSDDTAVYYCTRYYGPYAMDYWGQGTLVTVSS VL: DIVMTQSPLSLPVTPGEPASISCRSSQSLLYNSNQKNYLAWYLQKPGQSPQLLIYWASTGESGVPDRFSGSGSGTDFTLKISRVEAEDVGVYYCQQYYSYPFTFGQGTKLEIK
binds	–	–	humanized antibody hu62 (antibody, V domains shown) VH: QVQLVQSGAEVKKPGASVKVSCKASGYTFTNYWILWIRQAPGQGLEWMGDIYPGGHYTNYNEKFQGRVTLTADTSSSTAYMELSSLRSEDTAVYYCTRYYGPYAMDYWGQGTLVTVSS VL: DIQMTQSPSSLSASVGDRVTITCRSSQSLLYNSNQKNYLAWYQQKPGKAPKLLIYWASTGESGVPSRFSGSGSGTDFTLTISSLQPEDFATYYCQQYYSYPFTFGQGTKVEIK
binds	–	–	humanized antibody hu81 (antibody, V domains shown) VH: QVQLVQSGAEVKKPGASVKVSCKASGYTFTNYWILWIRQAPGQGLEWMGDIYPGGHYTNYNEKLQGRVTLTADTSSSTAYMELRSLRSDDTAVYYCTRYYGPYAMDYWGQGTLVTVSS VL: DIVMTQSPLSLPVTPGEPASISCRSSQSLLYNSNQKNYLAWYLQKPGQSPQLLIYWASTGESGVPDRFSGSGSGTDFTLKISRVEAEDVGVYYCQQYYSYPFTFGQGTKVEIK

More lines, now with the values behind:

Binder	binding [1]	binding [2]	binding [3]
humanized antibody hu3 (antibody, human IgG4 S228P, kappa, V domains shown) VH: QVQLVQSGAEVKKPGASVKVSCKTSGYAFTEYTMHWVRQAPGQGLEWMGGINPNTGGTTYNQKFQGRVTLTVDKSSSTAYMELSRLRSDDTVVYYCAKLLRLMYYFDYWGQGTLVTVSS VL: DIVMTQSPDSLAVSLGERATINCKASQDVRTAVAWYQQKPGQPPKLLIYSASYRYTGVPDRFSGSGSGTDFTLTISSLQAEDVAVYYCHQHYITPWTFGGGTKVEIKR	binds	binds	binds
humanized antibody hu20 (antibody, human IgG4 S228P, kappa, V domains shown) VH: QVQLVQSGAEVKKPGASVKVSCKTSGYAFTEYTMHWVRQAPGKGLEWMGGINPNTGGTTYNQKFQGRVTLTVDKSSSTAYMELSSLRSEDTVVYYCAKLLRLMYYFDYWGQGTLVTVSS VL: DIQMTQSPSSLSASVGDRVTITCQASQDVRTAVAWYQQKPGKAPKLLIYSASYRYTGVPSRFSGSGSGTDFTFTISSLQPEDIATYYCHQHYITPWTFGGGTKVEIKR	–	binds	binds
